Measured values as given in patent publication US20160159910A1.
These are yes or no findings as the source states them, for the method shown. Binding calls can cover weak binding; strength is not graded here.

Tests used:
[1] = target: human B7-H4 (human); experiment: FACS on stable cell line expressing recombinant B7-H4 (hybridoma screen)
[2] = target: human B7-H4 (human); experiment: confocal microscopy of MX-1 cells with the antibody conjugated to a TAMRA/FAM FRET probe with a cathepsin cleavage sequence (2 µg/ml in the text)
[3] = target: human B7-H4 (human); experiment: fluorescence microscopy of SK-BR3 cells stained with Dylight 594-conjugated 9B9 (10 µg/mL in the text)
[4] = target: human B7-H4 (human); experiment: FACS on MX-1 human breast cancer tumor cells with endogenous human B7-H4

binding [1]	binding [2]	binding [3]	binding [4]	Binder
binds	–	–	–	murine monoclonal antibody 32D6 (antibody, V domains shown) VH: EVQLQQSGPDLVKPGASVKISCKASGYSFTGYYIHWMKQSHGKSLEWIGRVNPNNGDPIYNQKFRGKAILTVDQSSNTAYMELRSLTSEASAVYYCARVLFYYGSPFAYWGQGTLVTVSA VL: DIVMTQSPSSLIVTAGEKVTMSCRSSQSLFDSGSQRNYLTWFHQKPGRPPKLLIYWASTRESGVPDRFTGSGSGTDFTLTISSVQTEDLAVYFCQNDYSFPFTFGSGTKLEEK
–	binds	–	–	chimeric antibody ch22C10 (antibody, human IgG1, V domains shown) VH: QVQLQQPGAELVKPGTSVKLSCKASGYTFTNFWIHWVIQRPGQGLEWIGEIDPSDSYTNYNQKFKGKATLTVDKSSNTAYMQLSSLTSEDSAVYYCSREITTVDYWGQGTTLTVSS VL: QIVLTQSPTIMSASPGEKVTLTCSATSSISYMHWYQQKPGTSPKGWIYDTSKLAHGVPARFSGSGSGTSYSLTISSMEAEDAATYYCHQRRSYPFTFGSGTKLEIK
binds	–	–	–	murine monoclonal antibody 22C10 (antibody, V domains shown) VH: QVQLQQPGAELVKPGTSVKLSCKASGYTFTNFWIHWVIQRPGQGLEWIGEIDPSDSYTNYNQKFKGKATLTVDKSSNTAYMQLSSLTSEDSAVYYCSREITTVDYWGQGTTLTVSS VL: QIVLTQSPTIMSASPGEKVTLTCSATSSISYMHWYQQKPGTSPKGWIYDTSKLAHGVPARFSGSGSGTSYSLTISSMEAEDAATYYCHQRRSYPFTFGSGTKLEIK
binds	–	binds	binds	murine monoclonal antibody 9B9 (antibody, V domains shown) VH: QVQLQQSGAELMKPGASVKMSCKATGYTFSSYWIEWVKQRPGHGLEWIGEILPGTSITTYNAKFKVKATFTADTSSNTAYMQLSSLTSEDSAVYFCARYYFGSSSFYFDYWGQGTSLTVSS VL: QAVVTQESALTTSPGDTVTLTCRSSTGAVTTSNYANWVQEKPDHLFTGLIGGTNNRVPGVPARFSGSLIGDKAALTITGAQTEDEAMYFCALWYNNHWVFGGGTKLE
